Experimental data published in article PMC8329197, “Compounds targeting OSBPL7 increase ABCA1-dependent cholesterol efflux preserving kidney function in two models of kidney disease” (Nature Communications, 2021).
A number of entries come with more than one value. They are shown here; other results are not. An entry can have further records. The records of an entry differ for a reason that is not stated; dose, time, organism, isomer or construct need not be as stated for each record.

What was measured:
OSBPL7 = test: Competition with ^3H-Cpd K UV cross-linking to FLAG-tagged OSBPL7 in HEK293 cells (immunoprecipitation, autoradiography); design: concentration or dose not given beside the values; details: single experiments (3 per compound)
human THP1 macrophages = test: apoAI-mediated (ABCA1) cholesterol efflux from cholesterol-loaded THP1 macrophages; assay type: cell-based; details: single experiments (3 per compound)

O=C(N[C@@H]1CCCC[C@H]1O)c1cnc(OCC(F)(F)F)c(-c2ccc(Cl)cc2)c1 [Cpd J]
OSBP7 percentage of inhibition (OSBPL7): 21%, 63%, 37%

O=C(Nc1cnc(OCC(F)(F)F)c(-c2ccc(Cl)cc2)c1)c1cccnc1 [Cpd M]
ABCA1 percentage of induction (human THP1 macrophages): 196%, 56%, 86%
